Test results from patent publication US9744222B2 (Circassia Limited, priority 2007, dated 2017).
Where no end group is shown, it is not given here.

Assay: peptide synthesis
Settings: whole synthesis

Sequence	purity (crude or final not stated) [%]
KVLAPAFKKELER	90.8
VDFKGELAMRNIE	79.8
VDFKGELAMRNIEAR	82.1
